{"source": "PubChem BioAssay AID504834", "about": "(National Center for Advancing Translational Sciences (NCATS), 2011)", "note": "The campaign covered roughly 320,000 compounds. About 22,000 (6.9%) were called active. This list was built around the results that the source calls inconclusive (neither active nor inactive); the mix of calls is not that of the screen. Calls come from the whole dose curve; as a rule, active = well fitted inhibition curve with a large enough effect; inconclusive = small, poorly fitted or top-dose-only effect, or another doubt; inactive = no such curve, though single readings can be large or run the other way. Potencies of inconclusive entries are doubtful fits and often do not repeat. % is set by controls: 0 for no effect and ±100 for the full control effect; potency is the fitted concentration of half-maximal effect.", "data": [{"test": "Primary qHTS for delayed death inhibitors of the malarial parasite plastid, 96 hour incubation", "conditions": "P. falciparum luciferase reporter growth; series mostly up to 28.7 µM; activity change, negative = inhibition: at the top concentration", "procedure,_shortened": "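Compounds incubated with erythrocytes infected by luciferase-expressing P. falciparum (2% hematocrit, 0.05% parasitemia final) for 96 hours, 37 C in 5% CO2. Growth inhibition scored as decreased luciferase luminescence.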", "values": [{"smiles": "CCCCCCCCCCOC(=O)Cn1c(COc2cccc(C)c2)[n+](C)c2ccccc21", "Potency": "active: 5.22 µM"}, {"smiles": "COc1cccc(NC(=O)C(Sc2nnnn2C)c2ccccc2)c1", "note": "(configuration not stated)", "Potency": "inconclusive: 18.5 µM [inhibitor, single point]"}, {"smiles": "CNC(=O)/C(C#N)=C/c1cn(CC(=O)NCc2ccco2)c2ccccc12", "activity change, negative = inhibition": "inactive: 11.9%"}, {"smiles": "CCN(CC)C(=S)SCc1csc(CC(=O)Nc2ccccc2C)n1", "Potency": "inconclusive: 11.7 µM [inhibitor, partial curve]"}, {"smiles": "NC(N)=N/N=C/c1ccc(Cl)c([N+](=O)[O-])c1", "Potency": "active: 11.7 µM"}, {"smiles": "CCCCCNC(=O)CN(c1ccc2c(c1)OCO2)S(C)(=O)=O", "Potency": "inconclusive: 10.4 µM [inhibitor, single point]"}, {"smiles": "COc1cccc(NC(=O)CSc2nnc(-c3cc(C)n(-c4ccccc4)c3C)o2)c1", "Potency": "active: 10.4 µM"}, {"smiles": "CC[C@@]12C(=O)N(c3ccc(C)cc3)C(=O)N1[C@H](c1ccc(OC)cc1)[C@@H]1C(=O)N(C(C)(C)C)C(=O)[C@@H]12", "Potency": "inconclusive: 18.5 µM [inhibitor, single point]"}, {"smiles": "CCCNC(=O)c1onc(CSc2ccc(F)cc2)c1C(=O)NC(C)C", "Potency": "active: 11.7 µM"}, {"smiles": "O=C(NNS(=O)(=O)c1ccccc1[N+](=O)[O-])c1ccccc1[N+](=O)[O-]", "Potency": "inconclusive: 10.4 µM [inhibitor, single point]"}, {"smiles": "CCOC(=O)N1CCC(C(=O)Nc2ccc(OCC)cc2)CC1", "activity change, negative = inhibition": "inactive: 4.34%"}, {"smiles": "CCOC(=O)C1=C(C)N(CCCC(=O)O)C(=O)NC1c1ccc([N+](=O)[O-])cc1", "note": "(configuration not stated)", "Potency": "inconclusive: 16.5 µM [inhibitor, partial curve, poor fit]"}, {"smiles": "CCOc1ccc(NC(=O)C/C(C)=N/NC(=O)Cc2ccc(Cl)cc2)cc1", "Potency": "inconclusive: 2.33 µM [inhibitor, full curve]"}, {"smiles": "COc1ccc(C(c2c(C)n(C)n(-c3ccccc3)c2=O)c2c(C)n(C)n(-c3ccccc3)c2=O)cc1", "Potency": "inconclusive: 11.7 µM [inhibitor, single point]"}, {"smiles": "O=[N+]([O-])c1cccc(C2Nc3cccc4cccc(c34)N2)c1", "activity change, negative = inhibition": "inactive: -7.03%"}, {"smiles": "COc1ccc(N(CC(=O)NC2CCCCCC2)S(=O)(=O)c2c(C)nn(C)c2C)cc1", "Potency": "inconclusive: 10.4 µM [inhibitor, single point]"}, {"smiles": "Cc1ccc(S(=O)(=O)NCc2cccnc2)c(C)c1", "Potency": "inconclusive: 2.33 µM [inhibitor, partial curve, poor fit]"}, {"smiles": "FC(F)(F)c1nc(-c2cccs2)ncc1-c1nnnn1-c1ccc(Cl)cc1", "activity change, negative = inhibition": "inactive: 22.6%"}, {"smiles": "CN(C)CC(=O)Nc1ccc(S(N)(=O)=O)cc1", "Potency": "inconclusive: 18.5 µM [inhibitor, single point]"}, {"smiles": "Nc1ccccc1C(=O)OCc1ccc([N+](=O)[O-])cc1", "activity change, negative = inhibition": "inactive: 24.3%"}, {"smiles": "CC(=O)c1cccc(NC(=O)CSC(=O)c2ccccc2)c1", "Potency": "inconclusive: 0.738 µM [inhibitor, partial curve, poor fit]"}, {"smiles": "Cc1ccc(C(=O)N/C(=C\\c2cn(S(=O)(=O)N(C)C)c3ccccc23)C(=O)NCCCN2CCOCC2)cc1", "Potency": "inconclusive: 11.7 µM [inhibitor, partial curve, poor fit]"}, {"smiles": "COc1cccc(-n2c(O)c(C=Nc3c(C)n(C)n(-c4ccccc4)c3=O)c(=O)[nH]c2=O)c1", "activity change, negative = inhibition": "inactive: 37.7%"}, {"smiles": "CC(C)CCCN1C(Nc2ccccc2)=NC[C@@H]1CC(C)C", "Potency": "inconclusive: 7.38 µM [inhibitor, partial curve, poor fit]"}, {"smiles": "CC1CCN(S(=O)(=O)c2ccc(NC(=O)C3CSC4(C)CCC(=O)N34)cc2)CC1", "note": "(configuration not stated)", "Potency": "inconclusive: 10.4 µM [inhibitor, single point]"}, {"smiles": "COc1ccc(N(C(=O)c2cccc(OC)c2OC)C2C=CS(=O)(=O)C2)cc1", "note": "(configuration not stated)", "Potency": "active: 2.33 µM"}, {"smiles": "CN(C)c1ccnc(SCc2ccccc2Cl)c1C#N", "Potency": "inconclusive: 18.5 µM [inhibitor, single point]"}, {"smiles": "c1ccc(-c2nc(N3CCOCC3)c3ccccc3n2)nc1", "Potency": "inconclusive: 0.294 µM [inhibitor, full curve]"}, {"smiles": "CCCCn1c(N)c(N(CCOC)C(=O)c2cc(-c3ccc(OC)cc3)nc3ccccc23)c(=O)[nH]c1=O", "Potency": "inconclusive: 11.7 µM [inhibitor, single point]"}, {"smiles": "O=C(NCC(c1cccnc1)N1CCN(c2ccccc2)CC1)OCc1ccccc1", "note": "(configuration not stated)", "activity change, negative = inhibition": "inactive: 18.5%"}, {"smiles": "Cc1ccc(C(=O)OCC(=O)NC2CC2)cc1S(=O)(=O)N1CCOCC1", "Potency": "inconclusive: 13.1 µM [inhibitor, partial curve, poor fit]"}, {"smiles": "O=C(CCCOc1ccc(Cl)cc1Cl)NCCc1ccccn1", "activity change, negative = inhibition": "inactive: 107%"}, {"smiles": "CCCCn1c(N)c(N(CC(C)C)C(=O)c2cc(C)oc2C)c(=O)[nH]c1=O", "Potency": "inconclusive: 4.15 µM [inhibitor, single point]"}, {"smiles": "Cc1ccc2c(ccc(=S)n2C)c1", "Potency": "inconclusive: 18.5 µM [inhibitor, single point]"}, {"smiles": "CSc1nnc(SCC2=NNC(=O)SC2)s1", "activity change, negative = inhibition": "inactive: 35.2%"}, {"smiles": "Cc1cc(NC(=O)CN2CCCC2c2nc3ccccc3s2)no1", "note": "(configuration not stated)", "Potency": "inconclusive: 18.5 µM [inhibitor, single point]"}, {"smiles": "CCOC(=O)N1CCC(NC(=O)c2cc(C(=O)Nc3ccc(OC)c(OC)c3)ccc2CO)CC1", "Potency": "inconclusive: 2.08 µM [inhibitor, partial curve]"}, {"smiles": "O=C(CCC(=O)N1CCN(c2ccc(O)cc2)CC1)c1cccs1", "Potency": "active: 7.38 µM"}, {"smiles": "COC(=O)C1(C)Nc2ccccc2C(=O)N1c1ccccc1C", "note": "(configuration not stated)", "Potency": "inconclusive: 16.5 µM [inhibitor, single point]"}, {"smiles": "CCN(CC)CCN1C(=O)c2oc3ccccc3c(=O)c2C1c1ccccc1", "note": "(configuration not stated)", "Potency": "inconclusive: 10.4 µM [inhibitor, partial curve, poor fit]"}, {"smiles": "O=C(c1ccc2c(c1)N(Cc1ccccc1)C(=O)CS2)N1CCOCC1", "Potency": "active: 13.1 µM"}, {"smiles": "O=S(=O)(c1ccc2c(c1)OCCO2)N1CCN(Cc2ccc3c(c2)OCO3)CC1", "Potency": "inconclusive: 0.294 µM [inhibitor, partial curve, poor fit]"}, {"smiles": "COC(=O)C1=C(c2ccc(Cl)c(C(F)(F)F)c2)C[C@@H]2CC[C@H]1N2C(=O)NCCOc1ccccc1Cl", "Potency": "active: 6.57 µM"}, {"smiles": "O=C(NCC(=O)N(c1ccc(F)cc1)C(C(=O)NC1CCCCC1)c1ccncc1)c1ccco1", "note": "(configuration not stated)", "activity change, negative = inhibition": "inactive: 7.25%"}, {"smiles": "Cc1cc(CSc2ccccc2)ccc1NC(=O)c1ccc(Br)cc1", "Potency": "inconclusive: 4.15 µM [inhibitor, single point]"}, {"smiles": "COc1ccc(-c2nc3c(Br)c(N)c(Br)cc3o2)cc1", "Potency": "inconclusive: 9.28 µM [inhibitor, partial curve]"}, {"smiles": "COc1cc(NC(=O)C2CC(c3ccccc3O)=NO2)c(OC)cc1Cl", "note": "(configuration not stated)", "Potency": "inconclusive: 10.4 µM [inhibitor, partial curve, poor fit]"}, {"smiles": "CN(CC(=O)Nc1ccccc1Br)CC(=O)NC(c1ccccc1)c1ccccc1", "Potency": "inconclusive: 18.5 µM [inhibitor, single point]"}, {"smiles": "O=C(CCCc1nc2ccccc2s1)Nc1nccs1", "Potency": "inconclusive: 8.28 µM [inhibitor, partial curve, poor fit]"}, {"smiles": "N#CCC(=O)N/N=C/c1cc(Br)ccc1OCc1cccc2ccccc12", "Potency": "inconclusive: 11.7 µM [inhibitor, single point]"}, {"smiles": "COc1cccc(N2C(=O)C3CCCN3C2=S)c1", "note": "(configuration not stated)", "Potency": "inconclusive: 10.4 µM [inhibitor, partial curve]"}, {"smiles": "Cc1ccc(CSc2ccc(-c3cccs3)nn2)cc1", "activity change, negative = inhibition": "inactive: 150%"}, {"smiles": "CN1C2CCC1CC(NC(=O)CSCc1ccc(Cl)cc1Cl)C2", "note": "(configuration not stated)", "Potency": "active: 13.1 µM"}, {"smiles": "Cc1cc(C)nc(NS(=O)(=O)c2ccc(NC(=S)NC(=O)C(C)C)cc2)n1", "Potency": "inconclusive: 18.5 µM [inhibitor, single point]"}, {"smiles": "C[N+]12CCC(CC1)C(=C(c1ccccc1)c1ccccc1)C2", "Potency": "active: 0.586 µM"}, {"smiles": "COC(=O)C1=C(C)N(C(C)c2ccccc2)C(=O)/C1=C\\c1ccco1", "note": "(configuration not stated)", "Potency": "inconclusive: 18.5 µM [inhibitor, single point]"}, {"smiles": "Cc1ccc(OCC(=O)N/N=C/c2cn[nH]c2-c2ccc(Cl)c(Cl)c2)cc1", "Potency": "inconclusive: 0.0828 µM [inhibitor, full curve, poor fit]"}, {"smiles": "CSc1ccc(CCNC(=O)CS(=O)(=O)Cc2nc(-c3ccccc3F)oc2C)cc1", "Potency": "inconclusive: 3.29 µM [inhibitor, partial curve]"}, {"smiles": "O=C1C(Cl)=C(NCCc2ccccc2)C(=O)N1CCc1ccccc1", "Potency": "inconclusive: 4.65 µM [inhibitor, single point]"}, {"smiles": "CCCNC(=S)NC1CC2CCC(C1)N2Cc1ccccc1", "note": "(configuration not stated)", "Potency": "inconclusive: 10.4 µM [inhibitor, single point]"}, {"smiles": "CC(=O)c1ccc(OCCCC(=O)NCCc2ccccc2)cc1", "Potency": "inconclusive: 18.5 µM [inhibitor, single point]"}, {"smiles": "CCN1CCN(c2nc(S(=O)(=O)c3ccc(C)cc3)c(Cl)s2)CC1", "Potency": "inconclusive: 13.1 µM [inhibitor, single point]"}, {"smiles": "CN(C(=O)COC(=O)Cc1c(Cl)cccc1Cl)c1c(N)n(Cc2ccccc2)c(=O)[nH]c1=O", "Potency": "inconclusive: 18.5 µM [inhibitor, single point]"}, {"smiles": "CCC(CC)NC(=O)c1ccccc1Oc1ccccc1", "Potency": "inconclusive: 11.7 µM [inhibitor, single point]"}, {"smiles": "COc1ccc(C(=O)Nc2nnc(-c3ccc(F)cc3)s2)c(OC)c1", "activity change, negative = inhibition": "inactive: 38%"}, {"smiles": "O=C(Cc1c[nH]c2ccccc12)N/N=C/c1cccc(F)c1", "Potency": "inconclusive: 10.4 µM [inhibitor, single point]"}, {"smiles": "O=S(=O)(Nc1cccc(-c2ccc(N3CCCCCC3)nn2)c1)c1ccccc1F", "Potency": "active: 14.7 µM"}]}]}
